# Assay results: PubChem BioAssay AID1347426 (Functional Genomics Laboratory (NCATS/FGL), 2020)
# Among all 31,000 sequences or so, about 1,400 (4.5%) were called active.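 Rule for the calls: active = median seed-adjusted z-score above 1 or below -1; inactive = the rest.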 The list shows a part of the results.
# Test: Novel Modifiers of Survival Motor Neuron (SMN) Protein: Gene Identification via Genome-wide siRNA Screen;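 note: luminescence tracks full-length SMN protein made from the SMN2 reporter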
# Details: HEK293T SMN2-luciferase reporter, siRNA knockdown, 72 h; actives lie on both sides
# Procedure, shortened: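 HEK293T cells stably expressing an SMN2 splicing/cDNA-luciferase reporter were reverse-transfected with a druggable-genome siRNA library and read by luminescence at 72 hours; hits defined by MAD score above 1.0 or below -1.0.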
row,Sequence,median seed-adjusted z-score
1,GCUUCCACGUGUUCGACCATT against HSF1,inactive: 0
2,CCUAUUCACUUCUCAUGCATT against FCGR2B,inactive: -0.163
3,GCAAAGCUGCUGAGUAAUATT against TIPIN,inactive: 0
4,GGAAAGUUCGAUUACAACATT against ACOT12,inactive: 0.0741
5,CCAUAAUGCUACAAACUCUTT against CCNT2,inactive: -0.836
6,GGGCAAAUAGAUUCGAGUATT against SMARCA5,inactive: -0.0804
7,CCCUUACACCAAUACCGCATT against IMP4,inactive: -0.359
8,GACUGUCACUCAACGAAGATT against DNAJB9,inactive: 0.0962
9,GGAAGCAACUUCCAUAAAATT against QTRTD1,inactive: 0.377
10,CCUAUGACGUGAACAGAGATT against ITIH3,inactive: 0
11,GGCCCUUCAUCGAUAGCUATT against APEX2,inactive: -0.347
12,GCAUAGAUAGCACCGUGAATT against SLC20A1,inactive: -0.186
13,CGCUCAUGGACUUCGCCUATT against ZBTB7A,inactive: -0.344
14,CGAGCUCAUGAAUAGAGUUTT against ANGPTL5,inactive: 0
15,CCCUAUUGAUGGACAAGUUTT against ZSWIM2,inactive: -0.199
16,GGAUGCCCUUUUCAUCGAATT against PPID,inactive: -0.206
17,GAUCCGCACGUGAAAACAATT against TCEB3C,inactive: 0.382
18,CAAAGCGAAUUGAUCUUUATT against GLRB,inactive: 0.0713
19,GCCUAAACCUCAGCAGAUATT against ETHE1,inactive: 0
20,GGCAUUUGGUCGAAGUUCATT against ZNF229,inactive: -0.497
21,CCACAGUUCCUGUCAUGUUTT against ACMSD,inactive: 0
22,GCUAUUGGAUGAACUCCCATT against PHCA,inactive: 0.0568

# Fetched one by one from the entries so far, 3 records:
row,Sequence,median seed-adjusted z-score
10,CCUAUGACGUGAACAGAGATT against ITIH3,inactive: 0
7,CCCUUACACCAAUACCGCATT against IMP4,inactive: -0.359
22,GCUAUUGGAUGAACUCCCATT against PHCA,inactive: 0.0568

# Next part

row,Sequence,median seed-adjusted z-score
1,GGCAGAAUGUUUCGAGCUUTT against LCN10,inactive: 0
2,GUGAUUGCUUUAUACCGAATT against USP28,inactive: 0.275
3,GCAGAAUUAAGUCAAACAATT against ZBTB37,inactive: -0.219
4,CUACGACUAUCGAAGCAUUTT against RPGR,inactive: 0.1
5,CAUUCGCCGUUACCUGCCATT against POLR2F,active: -3.52
6,CCAUGGAGCUUUGUGAAGATT against CES1,inactive: -0.536
7,GGAUACUAGUAACUGGUCUTT against PARD3,inactive: -0.116
8,CUAGUAUAUUCACCGUCUATT against NALCN,inactive: -0.266
9,CUAUAGUAACUGUCUAGGATT against RCBTB1,inactive: 0
10,GGGCCUUAAUUUGUACUGUTT against KLF2,inactive: 0.359
11,GACCUUACCUCAGACUAGATT against EXOG,inactive: 0.746
12,GGAUCCAGGUGAAUGAUCUTT against PPP1R9B,inactive: -0.244
13,GGACUCCAGCAUUUGCUUATT against SCG5,inactive: 0.573
14,CCACACUGUUUUCUACGAATT against TARS2,inactive: -0.0143
15,GGCGGUAAACCAGAACUAATT against PCDHA12,inactive: 0.0761
16,AGACUUCCGCUACACUUUUTT against ADORA2B,inactive: -0.471
17,CCGUGAACCCAGAACAGUATT against PIP4K2A,inactive: 0.469
18,GGAAGAGCUAGAGAAGUUUTT against VPS16,inactive: 0.306
19,CCUGGACGAGUUUAUAAUATT against AP1S3,inactive: 0.153
20,GCCGCUUUCCUGACGAGAATT against PPIF,inactive: 0.0719
21,AGCCCAUGAUUAAUUUGUATT against FUS,inactive: 0.92
22,GCCUUUUGCUGCGCACCAATT against CD151,inactive: -0.0305

row,Sequence,median seed-adjusted z-score
1,GGUUAAAGUCUGCAACUAATT against USP1,inactive: -0.564
2,UUGUUAACAUGAAAACUCATT against GTPBP8,inactive: 0.834
3,CGUGUGAUCCAGAGACUUATT against KRT1,inactive: -0.362
4,GUACGUGACUGGUUACAAUTT against FLRT3,inactive: -0.468
5,CUCCUGUUUUGGUACCCAATT against FLVCR2,inactive: -0.336
6,CGGUGACCAAGAUUACCAATT against MBD3,inactive: 0.708
7,GAACCAAUCCAGUCAGGAUTT against PXMP2,inactive: -0.444
8,AGAUGAAACUUAUUGAACATT against PHF15,inactive: 0
9,GAGUGCAAUUGGAACCUGATT against ARHGAP30,inactive: 0.0946
10,GGUGGGCAGUGGUUACAAUTT against KCNA6,inactive: 0
11,GAAAGGACGACGUAAUCAATT against ZMYND11,inactive: -0.032
12,CUCUCUCAGUAGACGACAATT against AKAP6,inactive: -0.0978
13,GAGUUUCGCCUGCUACAGATT against CELSR3,inactive: 0
14,ACUGCUGCGUGAUCCAUCATT against ITGB1BP3,inactive: 0.0514
15,GGCUAGACACGGGAGAAUATT against PDGFRB,inactive: -0.709
16,CCAGGACAAAUGUUCGAUUTT against RAB3GAP2,inactive: 0.0583
17,GCAUCAGGGUCAUGGUUCATT against SCNN1D,active: -1.8
18,CACCUUUUCGCGCUCCUACTT against KCNG2,inactive: 0
19,CAAGAACACCAUACUGAAATT against IDH2,inactive: 0.0592
20,CGACCGCACCUGGAAUGAATT against PLA2G4D,inactive: -0.233
21,GGAUGGAACUUUACCCUCATT against MKL2,inactive: -0.863
22,GGAUGAAGUUUGACGCACATT against PCK1,inactive: -0.401

# Reformatted: results already given
row	Sequence	median seed-adjusted z-score
19	CAAGAACACCAUACUGAAATT against IDH2	inactive: 0.0592
20	CGACCGCACCUGGAAUGAATT against PLA2G4D	inactive: -0.233

# Going on with the list.

row,Sequence,median seed-adjusted z-score
1,GGCUCUACGGUUUCAAGAUTT against CSNK2B,active: -1.62
2,ACAUCCACAGGUUCACUAATT against NDUFA1,inactive: 0.182
3,GAACCGCAGUUGGAAUUCATT against INPP4B,inactive: 0.0722
4,CUAUGAUUAUUAACGAUGUTT against RHOA,inactive: -0.219
5,GCCGAUACCUUCACUCGAATT against TAP1,inactive: -0.506
6,GGAAGAUCCAAGCUUCGAATT against SLTM,inactive: 0.547
7,CACCCACCGCCACAAUAAATT against BSG,inactive: 0.211
8,CAAUGAAGAUAUGUUUAGATT against WBP5,inactive: 0.452
9,CAAGAGUCAUUGCACUGGATT against ZNF114,inactive: -0.303
10,CAUACACUCUACUCCUGCUTT against CDH26,inactive: 0
11,GGACUUUGCCUAUGUCUGUTT against TFAP2C,active: 1.28
12,CCAUUUGGAUAUCAAAGUATT against ILF2,inactive: -0.19
13,CCACCUGAGUAACCCAUAUTT against PBX2,inactive: 0.253
14,AGACGUACAUUCCAAAGGATT against ZNF516,inactive: 0.56
15,CGAAGUGGCCUGAACCUGUTT against MASP2,inactive: -0.137
16,CAGCAUUACAUGAAAGAAATT against FEZF1,inactive: 0.155
17,GUACCACCCUGACAAAAAUTT against DNAJB9,inactive: 0.0962
18,GAGGCAGUCUUAAAAUGGATT against RAB32,inactive: -0.112
19,GAACUAUGGUGCUACUGGATT against ZNF449,inactive: 0.178
20,UGGUCUUGCACAUGACUAATT against FZD9,inactive: -0.0532
21,GUGUCAGAGUUUAUAUCAATT against PDE4D,inactive: 0
22,GAUCAGCUAUAUCAUAUUATT against CDKL2,inactive: -0.293

row,Sequence,median seed-adjusted z-score
1,GCCUCCCACUGGUUAUACUTT against EWSR1,inactive: -0.654
2,GGAUGUCACUGAUCUCAAUTT against MYOCD,inactive: -0.121
3,CCUUUGAGCUUAAAGAGCATT against ZFYVE19,inactive: 0.0704
4,GGAUGUGAAGUUCAAGCUUTT against DHX34,inactive: -0.269
5,CAUCCGACAUUGAAGUUGATT against B2M,inactive: -0.367
6,GGCACGAGUCAUUCCCAUATT against PECR,inactive: -0.347
7,ACUGAAAACUGGUGAGACATT against PPAP2B,inactive: 0
8,CAGAUUGUCUGAUUCGAUUTT against TRIP11,inactive: 0.333
9,CGGGAAUGGUUAUGAAUCUTT against PTS,inactive: -0.103
10,GAAGUGAACUCCAUGCUCATT against INPP5J,inactive: 0.223
11,GAGCGAUCCUUGUUAUGAATT against GRID2,inactive: 0.676
12,GGCAGAUAUGGUGAACGAATT against UGCGL1,inactive: -0.391
13,GGAAGUUCCUCUCCAAUGATT against CD22,inactive: -0.448
14,CGGUGCAACUUCUUCCUCUTT against APEX2,inactive: -0.347
15,GGAGUGUGACCGUCACUAUTT against KAL1,inactive: 0.0824
16,CCAUGACUACUGUUGGGUATT against KCNB1,inactive: 0.0206
17,CUAUGAAGGUACUAAUGAATT against CD2AP,inactive: 0.113
18,GCUGUCUUAUGGUCUACAATT against ADAT2,inactive: 0.604
19,CCUUUGAACUCCUUACUUUTT against TBX22,inactive: 0.0269
20,GAGUCACUCUUUGUUCGAATT against MAPKAP1,inactive: -0.0499
